# Data from PubChem BioAssay AID1347423 (Functional Genomics Laboratory (NCATS/FGL), 2020).
# About 210 (0.4%) of roughly 52,000 sequences were called active.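 Rule for the calls: active = gene whose silencing raises cell survival under the drug, median off-target-corrected z-score across its silencing RNAs 2 or more; inactive = the rest.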 This is one part of the list.
# Assay: Resistance to Poly (ADP-Ribose) Polymerase inhibitor: Gene Identification via Genome-wide siRNA Screen
# Conditions: mouse BRCA2 R2336H ES cells, olaparib, CellTiter-Glo viability; hits give high values
# Summary of the method: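 Mouse BRCA2 R2336H ES cells were reverse-transfected with siRNA (20 nM final), treated at 48 h with 500 nM olaparib, and read by CellTiter-Glo after 72 h. Scores: MAD-based z per siRNA, median per gene, seed off-target correction.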
row,Sequence,z-score
1,GGACUCAAGCUAGAACACATT against Col16a1,inactive: 0.00287
2,CCGAAUUGAAAUCACAAGCTT against Nup43,inactive: 0.478
3,GCAUCCCGACUACAAGUACTT against Sox21,inactive: -0.084
4,GACAAAACUCAUUGUUCUUTT against Taf11,inactive: -0.128
5,GCUCUGACCAUCCUUAGCUTT against Olfr938,inactive: -1.14
6,GCUUAAAGCUAACCUAAUGTT against Dyrk3,inactive: 0.0765
7,GGGAAGAUCAGGGAUGCUCTT against 1810055D05Rik,inactive: -0.339
8,GCAUCACUUACAGAUAGACTT against Olfr305,inactive: 1.75
9,GGCAUUCGAAGGGACAGAUTT against Arg2,inactive: -0.343
10,GGUUUCUUCAUCUUGUAUUTT against 9430022F06Rik,inactive: 0.485
11,GGACAGACUGAAUGAGCAGTT against 2210404D11Rik,inactive: 0.896
12,GGAAACGUAUUUAAAUCCATT against Zfp312,inactive: 1.13
13,GGAGAUCCCGUCACUAUCUTT against BC027309,inactive: 0.109
14,GGAGAUGACGUGAAAACAATT against Srf,inactive: 1.93
15,GGAUGUGUCAGGAAAAUAGTT against Ctsm,inactive: -1.29
16,GGUGUCUAUCUUCAACCCATT against Olfr132,inactive: -0.0869
17,GCAUGAAAAGGUAUUACUCTT against Sec15l1,inactive: 0.131
18,CCAUUUUAGCCAUCUGGUATT against Slc5a4b,inactive: 1.35
19,CCAGGGUGGUCUUUUGAAGTT against Sui1-rs1,inactive: 0.537
20,GGAGAAAAGCAAUAAUGAATT against Klf12,inactive: -0.103
21,CCCAAAUGAUUGGAUCUGUTT against Tnfsf5,inactive: -0.393
22,GGGUUACUGCUUUGAUAGUTT against Tacstd1,inactive: 0.16
23,CCGAAUUCGGUUUAAGCUCTT against Gtf2ird1,inactive: 0.247
24,GGUAGAUGAACUUUAAAGATT against Syt13,inactive: 1.37
25,GGCUGAGAAGCAGACUUCCTT against BC056929,inactive: 0.0329
26,GGUGAAAAUGACCUGGUGATT against 4732429D16Rik,inactive: 0.841

row,Sequence,z-score
1,GGAGAUUUACCGCUACAGUTT against Scrib,inactive: 0.424
2,GGAAAGAGAAAAACAACCATT against Cngb3,inactive: -0.0221
3,GGACAUCAUAUUCGUUUUCTT against C130026L21Rik,inactive: -0.436
4,GGAAAUAGUACAGAAACCATT against Mcph1,inactive: 0.14
5,GGCACACUCUCGCAUCUAATT against Lcn4,inactive: -3.28
6,CCAGGUUGUAAAAACAGUUTT against Rdx,inactive: -0.213
7,CCAAAACCGCACAGUAGUATT against Olfr1065,inactive: -1.96
8,AAACGAUUCUGCAUUUAGCTT against Crh,inactive: 1.04
9,GGCUGAUUUAUACUGGAAATT against 1110020A09Rik,inactive: 0.803
10,GCCUGGACAAGUUUCUGAATT against Olfr726,inactive: 0.482
11,GGCAGGUGUCAGAAAUUUCTT against 9030221M09Rik,inactive: 0.0961
12,GCAGUUACCAGAGAUUGUCTT against AI790205,inactive: -2.16
13,GCAGCUUGAGUUCUCGAAUTT against C030030A07Rik,inactive: -0.229
14,GGAAGUGGUUUGAGCCAUCTT against Slc37a4,inactive: -0.899
15,CGAUUCUGAAGCUCCCAUCTT against Olfr684,inactive: 0.786
16,GCCGCCUCAAACUGGAUAATT against Hdac7a,inactive: -0.203
17,GGUGGAGUUUGACGAUUCCTT against Car5a,inactive: -0.334
18,GGAGGAGGACAUCUUCAUCTT against Pex11c,inactive: 0.689
19,CCUCCUGAGGAAACGAUUUTT against Tdh,inactive: -1.11
20,CGAUAUGGCUGGAUUCCAUTT against 4930471G03Rik,inactive: 0.317
21,GCAUUCCAUGGUACAGGGUTT against Adamts4,inactive: -0.499
22,GCAGUGUAUACCUGGGCUATT against 1700001C19Rik,inactive: -0.699
23,GGAGCAGCUGAGAGAAAAATT against BC050811,inactive: -0.0619
24,GGAUCCUUCUCUGUAAUAUTT against 3110003A22Rik,inactive: -1.09
25,GGAACCCUCCGAAGACUAUTT against Pml,inactive: -1.24
26,GGCCAAGACCUCAGAGAUUTT against Apoa2,inactive: -0.125

row,Sequence,z-score
1,GCCUGAUUGACUUAGAGUCTT against Eps8,inactive: 1.83
2,GCAUCCAUCUCCAUCAUGGTT against Olfr988,inactive: -0.627
3,GGCCCUUUAAAAAUAAAGCTT against Ppp1r14b,inactive: 0.0429
4,GGAACUCAAACAUGAGCGGTT against Atp5j2,inactive: -0.538
5,GGGUCAGACAUUAAUGUGATT against Traf1,inactive: 0.0675
6,GGAAAUCCUUAAAUCUGUCTT against Gk2,inactive: 1.14
7,GGCUUCCUGGCUCAUCCAATT against Etv1,inactive: -2.16
8,GCCCUGAAUGUGAAUUUGUTT against Ass,inactive: -1.16
9,CCUCAUGCCUCAUUUCAAATT against Arhgef6,inactive: -0.467
10,GGACACCCUUAUAUUUGUCTT against Olfr1216,inactive: 0.393
11,UGCGAGCUCACUGAUGUACTT against LOC384813,inactive: 3.47
12,CCGAGGACUAUUUGAAACGTT against Mkl1,inactive: 2.67
13,GCCAAUACCUAAGUUCUAUTT against F8a,inactive: -0.219
14,GUCCUUGGGACAUUCUCUUTT against Olfr168,inactive: -0.671
15,GGAACAAAAAGAUCUUUGATT against Pdzrn3,inactive: -0.323
16,GGACUAUUUGCUGAUGGACTT against Trpc6,inactive: -0.176
17,GGAUUCAAACUGGUUUUCATT against 2810422B04Rik,inactive: 1.19
18,GGUACAAGAUCAAGUCUCCTT against Scml4,inactive: -0.136
19,GGGAAGAAUUCAGAAAAACTT against 2010110K16Rik,inactive: 0.543
20,GGGCAGGUCUUCUUCCUCATT against Hoxd4,inactive: -0.0735
21,GGAGACAUCCAUUGAGCUUTT against Kirrel1,inactive: -0.209
22,GGAACACUGUAUCUUACGGTT against Mtmr6,inactive: 1.42
23,CCUGGCUGUAAUCACCAUCTT against Olfr1160,inactive: -1.23
24,GCUAUGUAAGACAUUUAACTT against 5033413D22Rik,inactive: -0.0191
25,GGCUGUGUUGAAAGUUUUCTT against Olfr564,inactive: -0.117
26,GGUCCUAGCUUCCUUUUACTT against R75581,inactive: -0.51

row,Sequence,z-score
1,CGGGUAAUAAGGAUUUGGGTT against Igsf4c,inactive: -0.0683
2,CCUGGAUAAAGAUUUUAGATT against Olfr722,inactive: 1.53
3,GCCACUACUUGAUCUAUCATT against Cd34,inactive: -0.383
4,GCGGCCAGUUCGUUAUAUUTT against Abi2,inactive: -0.595
5,GGCAGAGAUGGUGUUGAUGTT against Col1a2,inactive: 0.445
6,GGCAGAAUUGUGGAGUUCGTT against Cblc,inactive: 1.51
7,GGAGAUGUCAAUCAAACCCTT against Tmem26,inactive: 0.209
8,GGGCUCACUCCAAAUCUCUTT against D1Ertd622e,inactive: -0.565
9,CCGUUGUAUUUAUGUUUGCTT against Mrgprb5,inactive: 0.94
10,GGUGACAGUCACCAAAGAATT against Clstn1,inactive: -0.961
11,GGCAAAAGGAAGGUAGCCUTT against Cdyl,inactive: 0.655
12,GGCCUUAUCUCCCACAUCATT against LOC240549,inactive: -0.244
13,CCCAAUUGGAAACCUGAACTT against Actn3,inactive: 0.252
14,CCGGAAUAUCCACUAUAAUTT against DXImx46e,inactive: -1.17
15,GGAAGAAGAAGAGAGAGAATT against 5830402J09,inactive: -2.53
16,GGUUCCAAUGCUAUUGAAUTT against Mtac2d1,inactive: -0.357
17,CAGAUCCAUCUCUUAAUGGTT against Olfr204,inactive: -0.112
18,GGCUUUUCCAAGACCUUUCTT against 9430062J17Rik,inactive: -1.66
19,GGUUUCUGCGUCUUCACCCTT against Nr3c1,inactive: -0.131
20,CCGUGAAGGGUGAACUUAUTT against 4933402O15Rik,inactive: 1.87
21,GGCAGUUUUUGGACUGUCCTT against Olfr556,inactive: -1.11
22,GGAUUGGUUUAGUCAAUAATT against Psmc4,inactive: -3.42
23,GGCCAUCAUUGUCACCGUGTT against Adra2a,inactive: -1.31
24,GGAAGUCAAAAGUGAUUAGTT against Hkr3,inactive: -1.46
25,GGUUUUCACAAGACCUCUGTT against Ptgdr,inactive: 0.327
26,GGGAGCAAAUUAGAGAAAUTT against Gsk3b,inactive: -0.761

# Some of the entries so far, tab-delimited.
row	Sequence	z-score
7	GGGAAGAUCAGGGAUGCUCTT against 1810055D05Rik	inactive: -0.339
9	GGCUGAUUUAUACUGGAAATT against 1110020A09Rik	inactive: 0.803
5	GGGUCAGACAUUAAUGUGATT against Traf1	inactive: 0.0675
12	CCGAGGACUAUUUGAAACGTT against Mkl1	inactive: 2.67
13	GCCAAUACCUAAGUUCUAUTT against F8a	inactive: -0.219
